Out of some 400,000 compounds screened, about 13,000 (3.2%) were called active. The shares of active, inactive and inconclusive entries below differ from those in the screen. Calls come from the whole dose curve; as a rule, active = well fitted cell-killing curve with a large enough effect; inconclusive = small, poorly fitted or top-dose-only effect, or effect the other way; inactive = flat fitted curve, though single readings scatter. A potency beside an inconclusive call is a rough fit, not a confirmed value.
Test: qHTS assay for MDR1-selective chemotherapeutics: Primary screen using the drug-selected MDR subline cells KB-V1; note: nearly all actives have a fitted effect of over 60% in size
Settings: KB-V1 MDR cells viability, CellTiter-Glo, 72 h; activity change, negative = cytotoxicity: at 46.1 µM (top of the series)
Method in brief: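 Cells of the MDR subline KB-V1 are plated, dosed with compound at multiple concentrations, and incubated 72 h at 37 degrees C; CellTiter-Glo is then added and luminescence read after 10 min.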
% is set by controls: 0 for no effect and ±100 for the full control effect; potency is the fitted concentration of half-maximal effect.

Compound	Potency	activity change, negative = cytotoxicity
O=C(NC1CCCCCCC1)c1ccccc1-c1ccccc1	inconclusive: 13 µM [cytotoxic, partial curve]	
CC(C(=O)Nc1ccccc1-c1ccccc1)N1CCN(S(=O)(=O)c2ccccc2)CC1 (configuration not stated)	active: 2.91 µM	
Cc1ccc(C)c(S(=O)(=O)Nc2nc(C)c(C(=O)Nc3ccccc3)s2)c1	inconclusive: 20.6 µM [cytotoxic, partial curve, poor fit]	
Cc1ccc(-n2nnnc2-c2cnc3cc4c(cc3c2C)OCO4)cc1	active: 23.1 µM	
Cc1c(OC(C)C(=O)N[C@H](C(=O)O)c2ccccc2)ccc2c3c(c(=O)oc12)CCCC3 (some centres not stated)	inconclusive: 29.1 µM [rising, single point]	
COc1ccc(C(=O)NC(C)CCn2cccn2)cc1OC1CCN(C(C)C)CC1 (configuration not stated)		inactive: 17.8%
Cc1nn(C(C)C(=O)N2CCCC2)c(=O)c2nn(-c3ccccc3)c(C)c12 (configuration not stated)	inconclusive: 0.092 µM [rising, full curve]	
Cc1ccc(C)c(Oc2cc(NC(=O)CCCn3nc(C)c([N+](=O)[O-])c3C)cc([N+](=O)[O-])c2)c1	active: 10.3 µM	
CCN(CC)S(=O)(=O)c1cc(NC(=O)COc2ccc(C#N)cc2OC)ccc1C	inconclusive: 16.4 µM [cytotoxic, partial curve]	
O=C(NC1CCCCC1)N1CCSC1=Nc1ccccc1	inconclusive: 29.1 µM [cytotoxic, single point]	
CCn1c(SCC(=O)N2CCCCCC2)nc2c(c1=O)SCC2	inconclusive: 16.4 µM [cytotoxic, single point]	
COCc1cc(=O)n2[nH]c(C)c(-c3ccc(Cl)cc3)c2n1	inconclusive: 29.1 µM [cytotoxic, single point]	
COc1ccccc1N1CCN(CC(=O)N2CCCC2)CC1		inactive: -0.592%
Cc1ccc(N(C)S(=O)(=O)c2ccc3[nH]c4c(c3c2)CCCC4)cc1	active: 18.4 µM	
COc1ccc(OC)c(S(=O)(=O)N2Cc3ccccc3CC2C(=O)Nc2nccs2)c1 (configuration not stated)	inconclusive: 5.17 µM [cytotoxic, partial curve]	
CCc1ccc(N/C(N)=N/c2nc(CSc3ccccn3)cc(=O)[nH]2)cc1	inconclusive: 16.4 µM [cytotoxic, single point]	
O=C(COc1ccccc1)NCc1ccc2c(c1)CCN2C(=O)c1ccccc1	inconclusive: 18.4 µM [cytotoxic, single point]	
Cn1nnnc1SCCNCc1ccc(OCc2ccccc2Cl)cc1	inconclusive: 3.66 µM [cytotoxic, partial curve, poor fit]	
Cn1ccnc1Sc1cc(NCCCO)c([N+](=O)[O-])c2nonc12		inactive: -16.1%
O=C(c1cc(Sc2ccc(Cl)cc2)nc2ccccc12)N1CCN(c2ccccn2)CC1	inconclusive: 8.2 µM [cytotoxic, partial curve]	
OC(COC(c1ccccc1)c1ccccc1)CN1CCN(c2ccccn2)CC1 (configuration not stated)		inactive: -22.4%

Compound	Potency	activity change, negative = cytotoxicity
O=C1C=C(c2ccc3ncccc3c2)C[C@@H](c2ccc(Cl)cc2)C1	inconclusive: 16.4 µM [cytotoxic, partial curve, poor fit]	
COc1cc(/C=C2\SC(=O)N(Cc3ccc(Cl)cc3)C2=O)cc([N+](=O)[O-])c1O	inconclusive: 10.3 µM [rising, partial curve]	
CCOC(=O)c1c(C)[nH]c(C)c1C(=O)COc1ncnc2cc([N+](=O)[O-])ccc12	inconclusive: 23.1 µM [cytotoxic, single point]	
CC(=O)Nc1ccc(NC(=O)C(C)OC(=O)CCCN2C(=O)c3cccc4cccc(c34)C2=O)cc1 (configuration not stated)	inconclusive: 13 µM [cytotoxic, partial curve]	
CCN1C(=O)/C(=C2\SC(N3CCOCC3)=NC2=O)c2ccccc21	inconclusive: 18.4 µM [cytotoxic, partial curve, poor fit]	
COc1ccc(/C=N/NC(=O)c2ccncc2)cc1CN1CCOCC1		inactive: 1.54%
O=C(COC(=O)CCC(=O)c1ccc(F)cc1)NCCc1ccccc1	inconclusive: 18.4 µM [rising, partial curve, poor fit]	
CCN1C(=O)C(Cc2nc3ccccc3c(=O)n2-c2ccc(OC)cc2)c2cc(C)ccc21 (configuration not stated)		inactive: -4.92%
COCCNC(=O)C1(C)CCCN(Cc2ccc(-c3ccccc3)o2)C1 (configuration not stated)		inactive: -7.21%
CCN(CCNC(=O)CS(=O)(=O)Cc1nc(-c2cccc(OC)c2)oc1C)c1ccccc1	inconclusive: 20.6 µM [cytotoxic, single point]	
CCOc1nc(SCCOc2ccc(Cl)cc2Cl)nc(N(C)C)n1	active: 20.6 µM	
CCN(CCNC(=O)c1ccc2nc(-c3ccccc3NC(C)=O)c(=O)[nH]c2c1)c1ccccc1	inconclusive: 5.8 µM [rising, full curve, poor fit]	
O=C(CNC(=O)c1ccccc1)NCCO	inconclusive: 32.6 µM [rising, single point]	
Cc1cc(C(=O)CN2C(=O)NC3(CCCC3)C2=O)c(C)n1-c1ccc2c(c1)OCO2	inconclusive: 14.6 µM [cytotoxic, partial curve]	
Cc1cccc(N(C)C(CNS(=O)(=O)c2ccccc2)c2ccccc2)c1 (configuration not stated)	inconclusive: 29.1 µM [cytotoxic, single point]	
COc1ccc(Nc2cc(C(=O)N3CCc4ccccc4C3)c3ccccc3n2)c(OC)c1	inconclusive: 25.9 µM [cytotoxic, partial curve, poor fit]	
Cc1ccc(NC(=O)CSc2nnc(-c3cnccn3)n2-c2ccccc2)cc1		inactive: 0%
Brc1ccc(OCc2ccccc2)c(CNCc2ccncc2)c1	active: 16.4 µM	
COc1ccc(/C=N/NC(=O)CCn2cnc(-c3ccccc3)c2-c2ccccc2)cc1OC	inconclusive: 25.9 µM [cytotoxic, single point]	
Cc1ccc(S(=O)(=O)NCCC(=O)Nc2ccc3c(c2)OCO3)cc1	inconclusive: 23.1 µM [cytotoxic, partial curve, poor fit]	
COc1ccccc1NC(=O)c1c(Br)cnn1C	inconclusive: 25.9 µM [cytotoxic, partial curve, poor fit]	

Part of the list above, as a markdown table:

| Compound | Potency | activity change, negative = cytotoxicity |
| --- | --- | --- |
| CCOc1nc(SCCOc2ccc(Cl)cc2Cl)nc(N(C)C)n1 | active: 20.6 µM |  |
| CCN(CCNC(=O)c1ccc2nc(-c3ccccc3NC(C)=O)c(=O)[nH]c2c1)c1ccccc1 | inconclusive: 5.8 µM [rising, full curve, poor fit] |  |
| O=C(CNC(=O)c1ccccc1)NCCO | inconclusive: 32.6 µM [rising, single point] |  |
| Cc1cc(C(=O)CN2C(=O)NC3(CCCC3)C2=O)c(C)n1-c1ccc2c(c1)OCO2 | inconclusive: 14.6 µM [cytotoxic, partial curve] |  |
| Cc1cccc(N(C)C(CNS(=O)(=O)c2ccccc2)c2ccccc2)c1 (configuration not stated) | inconclusive: 29.1 µM [cytotoxic, single point] |  |
| COc1ccc(Nc2cc(C(=O)N3CCc4ccccc4C3)c3ccccc3n2)c(OC)c1 | inconclusive: 25.9 µM [cytotoxic, partial curve, poor fit] |  |
| Cc1ccc(NC(=O)CSc2nnc(-c3cnccn3)n2-c2ccccc2)cc1 |  | inactive: 0% |
| Brc1ccc(OCc2ccccc2)c(CNCc2ccncc2)c1 | active: 16.4 µM |  |
| COc1ccc(/C=N/NC(=O)CCn2cnc(-c3ccccc3)c2-c2ccccc2)cc1OC | inconclusive: 25.9 µM [cytotoxic, single point] |  |

From PubChem BioAssay AID1347076 (National Center for Advancing Translational Sciences (NCATS), 2019)
